Assay results reported in paper PMC10345109.
These are yes or no findings as the source states them, for the method shown. In cells and extracts the contact can be indirect. Some results given as binding are weak or reduced against the parent protein; the word gives no strength.

Amino acid sequences for entries named in this document (tags omitted). A change or cut given only in a name is not applied to a line headed by its entry. Chains listed by the source or under a name are the forms on record and can include a tag or linker.
UniProt O96019: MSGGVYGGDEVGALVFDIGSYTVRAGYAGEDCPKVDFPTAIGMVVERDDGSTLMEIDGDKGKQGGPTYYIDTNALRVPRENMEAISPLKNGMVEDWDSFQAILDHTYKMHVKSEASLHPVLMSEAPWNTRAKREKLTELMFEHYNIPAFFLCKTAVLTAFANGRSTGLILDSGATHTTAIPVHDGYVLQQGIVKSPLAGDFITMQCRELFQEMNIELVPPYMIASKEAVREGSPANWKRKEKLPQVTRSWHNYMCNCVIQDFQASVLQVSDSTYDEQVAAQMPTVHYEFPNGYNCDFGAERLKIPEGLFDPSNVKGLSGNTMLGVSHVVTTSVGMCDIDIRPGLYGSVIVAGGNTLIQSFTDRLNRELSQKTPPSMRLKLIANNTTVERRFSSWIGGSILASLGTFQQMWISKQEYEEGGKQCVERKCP
ACTL6A ΔHR (hydrophobic region) mutant (Δ319–324) (O96019, form named): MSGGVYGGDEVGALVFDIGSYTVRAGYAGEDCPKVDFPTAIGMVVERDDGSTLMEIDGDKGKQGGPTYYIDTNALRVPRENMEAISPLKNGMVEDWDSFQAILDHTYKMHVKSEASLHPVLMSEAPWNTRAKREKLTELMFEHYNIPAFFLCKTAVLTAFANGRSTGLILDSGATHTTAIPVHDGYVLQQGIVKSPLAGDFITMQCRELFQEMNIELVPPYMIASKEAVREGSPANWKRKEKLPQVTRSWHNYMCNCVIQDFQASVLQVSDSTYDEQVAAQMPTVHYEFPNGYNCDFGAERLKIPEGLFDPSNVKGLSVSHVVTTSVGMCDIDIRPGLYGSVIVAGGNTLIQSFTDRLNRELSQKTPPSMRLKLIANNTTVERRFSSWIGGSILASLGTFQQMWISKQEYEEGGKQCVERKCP

How the values were obtained:
[1] = molecular target: T1, Nuclear factor (erythroid-derived 2)-like 2 (NRF2) (human (endogenous in SNU638)) (UniProt Q16236); experiment: co-IP; endogenous proteins in SNU638 lysate (0.1% Triton, 0.1% NP-40, 50 mM Tris-Cl pH 7.5, 150 mM NaCl); 1 mg protein with anti-NRF2 or anti-ACTL6A antibody at 4 °C overnight, Protein A/G beads; IgG as control
T1 sequence: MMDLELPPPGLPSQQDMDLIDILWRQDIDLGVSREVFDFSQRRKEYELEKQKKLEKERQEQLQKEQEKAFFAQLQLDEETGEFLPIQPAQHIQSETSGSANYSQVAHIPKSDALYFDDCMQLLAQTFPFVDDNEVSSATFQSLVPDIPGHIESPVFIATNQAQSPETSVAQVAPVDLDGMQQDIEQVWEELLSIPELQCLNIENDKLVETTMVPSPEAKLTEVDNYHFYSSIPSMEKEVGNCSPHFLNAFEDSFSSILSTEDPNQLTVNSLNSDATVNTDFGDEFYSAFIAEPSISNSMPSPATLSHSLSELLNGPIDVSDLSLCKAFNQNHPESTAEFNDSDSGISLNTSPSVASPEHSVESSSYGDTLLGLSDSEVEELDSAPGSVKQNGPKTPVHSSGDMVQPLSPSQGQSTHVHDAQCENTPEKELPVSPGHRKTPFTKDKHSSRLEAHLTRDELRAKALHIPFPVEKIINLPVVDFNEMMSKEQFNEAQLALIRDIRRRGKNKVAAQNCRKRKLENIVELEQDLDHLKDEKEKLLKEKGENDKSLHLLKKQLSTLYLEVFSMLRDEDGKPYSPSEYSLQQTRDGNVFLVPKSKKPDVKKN

[2] = molecular target: ACTL6A ΔHR (hydrophobic region) mutant (Δ319–324) (human) (UniProt O96019); experiment: co-IP; lysate of SNU638 cells transfected with flag-tagged ACTL6A-WT, ACTL6A-ΔHR or pcDNA3.1 vector, incubated with M2 (flag) beads at 4 °C overnight; endogenous NRF2 detected by blot

Molecule: Actin-like protein 6A (ACTL6A) (from UniProt O96019 1-429)
- binding [1]: binds

B1: Nuclear factor (erythroid-derived 2)-like 2 (NRF2) (protein, UniProt Q16236 1-605)
chain: MMDLELPPPGLPSQQDMDLIDILWRQDIDLGVSREVFDFSQRRKEYELEKQKKLEKERQEQLQKEQEKAFFAQLQLDEETGEFLPIQPAQHIQSETSGSANYSQVAHIPKSDALYFDDCMQLLAQTFPFVDDNEVSSATFQSLVPDIPGHIESPVFIATNQAQSPETSVAQVAPVDLDGMQQDIEQVWEELLSIPELQCLNIENDKLVETTMVPSPEAKLTEVDNYHFYSSIPSMEKEVGNCSPHFLNAFEDSFSSILSTEDPNQLTVNSLNSDATVNTDFGDEFYSAFIAEPSISNSMPSPATLSHSLSELLNGPIDVSDLSLCKAFNQNHPESTAEFNDSDSGISLNTSPSVASPEHSVESSSYGDTLLGLSDSEVEELDSAPGSVKQNGPKTPVHSSGDMVQPLSPSQGQSTHVHDAQCENTPEKELPVSPGHRKTPFTKDKHSSRLEAHLTRDELRAKALHIPFPVEKIINLPVVDFNEMMSKEQFNEAQLALIRDIRRRGKNKVAAQNCRKRKLENIVELEQDLDHLKDEKEKLLKEKGENDKSLHLLKKQLSTLYLEVFSMLRDEDGKPYSPSEYSLQQTRDGNVFLVPKSKKPDVKKN
- binding [2]: no binding
